Some of the results follow.
How the values were obtained:
Test in all cases: log2 fold change, soluble protein after heating vs DMSO (PISA); higher = thermal stabilisation; K562 cells, 10 uM, 30 min; active = over 0.2 and 3.5 SD of the protein, either way, in both replicates (recomputed)
[1] = compound: C1=CC=C(C=C1)[C@H](COC2=CC3=C(C=C2)NC(=O)N3)NC(=O)C4=CC=CN(C4=O)CC5=CC(=C(C=C5)F)F
Method in brief: (§1)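 For each measurement, 10 μM compound was applied for 30 min to K562 cells at 2×10^6 cells/mL. Aliquots were heated for 3 min across 48°C-58°C, pooled, and extracted in PBS with 0.5% NP-40 at 4°C; the supernatant after 21,000xg for 90 min was soluble protein. This was quantified by TMTpro 16plex LC-MS/MS with channel sums equalised, and thermal stability was reported relative to control samples from duplicates, on a log2 fold-change scale.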

Amino acid sequences for entries named in this document (tags omitted). A change or cut given only in a name is not applied to a line headed by its entry.
UniProt O00220, whole entry, looked up: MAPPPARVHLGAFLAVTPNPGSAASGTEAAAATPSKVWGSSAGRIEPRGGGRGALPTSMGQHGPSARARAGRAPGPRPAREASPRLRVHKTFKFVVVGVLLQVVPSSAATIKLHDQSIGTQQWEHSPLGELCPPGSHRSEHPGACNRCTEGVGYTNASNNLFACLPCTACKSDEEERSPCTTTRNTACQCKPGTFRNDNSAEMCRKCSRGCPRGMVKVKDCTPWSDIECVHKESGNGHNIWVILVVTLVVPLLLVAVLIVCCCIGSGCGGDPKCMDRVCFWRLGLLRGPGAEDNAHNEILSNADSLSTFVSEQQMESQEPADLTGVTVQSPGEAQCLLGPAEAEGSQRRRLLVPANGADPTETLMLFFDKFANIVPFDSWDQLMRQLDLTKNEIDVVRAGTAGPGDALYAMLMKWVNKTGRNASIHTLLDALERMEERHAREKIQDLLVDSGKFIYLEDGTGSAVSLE
UniProt Q9UKI8: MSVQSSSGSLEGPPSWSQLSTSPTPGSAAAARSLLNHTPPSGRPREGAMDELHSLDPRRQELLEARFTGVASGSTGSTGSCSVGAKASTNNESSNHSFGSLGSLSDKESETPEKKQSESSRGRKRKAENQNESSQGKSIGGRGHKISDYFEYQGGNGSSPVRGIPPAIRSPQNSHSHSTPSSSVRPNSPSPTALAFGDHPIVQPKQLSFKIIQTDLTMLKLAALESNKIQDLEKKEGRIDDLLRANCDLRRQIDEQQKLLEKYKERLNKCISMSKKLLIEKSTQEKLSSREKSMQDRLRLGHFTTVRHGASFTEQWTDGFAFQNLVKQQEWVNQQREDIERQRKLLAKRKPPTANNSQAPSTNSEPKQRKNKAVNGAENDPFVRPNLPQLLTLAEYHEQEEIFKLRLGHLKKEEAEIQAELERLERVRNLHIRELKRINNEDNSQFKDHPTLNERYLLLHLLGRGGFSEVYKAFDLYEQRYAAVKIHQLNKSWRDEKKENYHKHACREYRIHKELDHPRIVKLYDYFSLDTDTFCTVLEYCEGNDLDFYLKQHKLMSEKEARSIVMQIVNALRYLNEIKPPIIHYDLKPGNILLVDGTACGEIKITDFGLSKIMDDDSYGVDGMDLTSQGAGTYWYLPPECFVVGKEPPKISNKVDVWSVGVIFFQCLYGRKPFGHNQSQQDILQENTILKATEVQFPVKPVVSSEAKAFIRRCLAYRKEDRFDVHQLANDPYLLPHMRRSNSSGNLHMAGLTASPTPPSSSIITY
UniProt Q96MH6: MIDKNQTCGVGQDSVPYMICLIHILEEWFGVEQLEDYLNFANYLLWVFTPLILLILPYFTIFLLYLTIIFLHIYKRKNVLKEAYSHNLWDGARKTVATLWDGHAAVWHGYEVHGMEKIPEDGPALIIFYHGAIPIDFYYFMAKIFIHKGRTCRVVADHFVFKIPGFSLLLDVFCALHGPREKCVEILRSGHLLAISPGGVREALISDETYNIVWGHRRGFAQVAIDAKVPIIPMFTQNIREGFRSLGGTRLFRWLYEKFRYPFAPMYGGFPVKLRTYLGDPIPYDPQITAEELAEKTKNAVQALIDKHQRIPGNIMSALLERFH
UniProt Q5BJF2, whole entry, looked up: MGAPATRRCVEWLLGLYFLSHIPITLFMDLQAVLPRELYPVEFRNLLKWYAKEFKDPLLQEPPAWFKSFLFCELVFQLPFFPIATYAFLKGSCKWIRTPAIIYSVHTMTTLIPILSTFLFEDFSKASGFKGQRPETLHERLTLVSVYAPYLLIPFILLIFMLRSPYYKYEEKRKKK
UniProt P17152: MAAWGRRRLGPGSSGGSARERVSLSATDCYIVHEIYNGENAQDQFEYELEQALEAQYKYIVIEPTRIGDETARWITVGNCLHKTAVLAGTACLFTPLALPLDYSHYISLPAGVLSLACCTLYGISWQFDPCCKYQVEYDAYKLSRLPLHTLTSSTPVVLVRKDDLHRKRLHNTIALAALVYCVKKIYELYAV
UniProt Q13445: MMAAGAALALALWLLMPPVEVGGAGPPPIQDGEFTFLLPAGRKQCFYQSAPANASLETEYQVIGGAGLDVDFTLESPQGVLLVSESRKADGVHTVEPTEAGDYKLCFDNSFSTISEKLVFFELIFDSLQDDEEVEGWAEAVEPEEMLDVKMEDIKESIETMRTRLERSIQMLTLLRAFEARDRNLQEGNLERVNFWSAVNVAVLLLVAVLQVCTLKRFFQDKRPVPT
UniProt Q6NUQ4: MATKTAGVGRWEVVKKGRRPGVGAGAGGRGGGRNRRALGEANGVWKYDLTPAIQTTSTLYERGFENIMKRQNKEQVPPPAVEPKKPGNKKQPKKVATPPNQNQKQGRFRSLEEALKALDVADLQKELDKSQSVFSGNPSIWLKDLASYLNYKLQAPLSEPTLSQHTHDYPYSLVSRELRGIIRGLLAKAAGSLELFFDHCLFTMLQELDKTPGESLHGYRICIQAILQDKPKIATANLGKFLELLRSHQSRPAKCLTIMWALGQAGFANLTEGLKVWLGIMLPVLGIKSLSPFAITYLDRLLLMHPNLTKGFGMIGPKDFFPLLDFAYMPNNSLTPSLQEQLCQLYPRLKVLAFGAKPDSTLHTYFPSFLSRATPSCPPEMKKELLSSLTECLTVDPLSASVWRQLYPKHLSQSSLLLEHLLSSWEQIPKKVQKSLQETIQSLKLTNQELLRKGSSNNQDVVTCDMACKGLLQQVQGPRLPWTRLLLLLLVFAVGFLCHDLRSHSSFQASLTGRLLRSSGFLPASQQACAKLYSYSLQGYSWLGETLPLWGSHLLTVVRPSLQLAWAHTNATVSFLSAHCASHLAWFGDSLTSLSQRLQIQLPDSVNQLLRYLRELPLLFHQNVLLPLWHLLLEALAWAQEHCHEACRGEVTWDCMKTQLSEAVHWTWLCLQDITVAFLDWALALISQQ
UniProt Q8TBQ9: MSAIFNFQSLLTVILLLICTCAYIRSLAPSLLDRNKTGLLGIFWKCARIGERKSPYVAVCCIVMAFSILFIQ
UniProt Q9NX61: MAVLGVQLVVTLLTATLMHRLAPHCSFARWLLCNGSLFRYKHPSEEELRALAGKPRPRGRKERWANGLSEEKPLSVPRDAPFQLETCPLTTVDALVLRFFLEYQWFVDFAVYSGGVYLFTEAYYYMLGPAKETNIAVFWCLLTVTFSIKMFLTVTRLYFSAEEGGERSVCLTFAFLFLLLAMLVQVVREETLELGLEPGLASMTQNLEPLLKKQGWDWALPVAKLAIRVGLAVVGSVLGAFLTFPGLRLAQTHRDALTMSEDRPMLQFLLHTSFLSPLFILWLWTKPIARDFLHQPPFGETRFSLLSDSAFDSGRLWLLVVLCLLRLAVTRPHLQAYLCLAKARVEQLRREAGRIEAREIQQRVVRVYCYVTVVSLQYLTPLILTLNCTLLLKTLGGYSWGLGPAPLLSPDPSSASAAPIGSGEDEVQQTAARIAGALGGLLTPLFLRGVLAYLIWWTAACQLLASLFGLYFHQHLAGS
UniProt P57088: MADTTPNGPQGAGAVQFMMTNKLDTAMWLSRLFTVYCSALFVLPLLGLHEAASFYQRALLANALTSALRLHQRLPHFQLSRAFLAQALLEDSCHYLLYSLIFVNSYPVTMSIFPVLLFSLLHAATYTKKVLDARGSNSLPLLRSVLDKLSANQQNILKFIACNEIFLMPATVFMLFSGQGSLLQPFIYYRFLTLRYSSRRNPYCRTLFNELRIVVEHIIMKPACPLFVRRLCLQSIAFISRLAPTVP
UniProt Q04727: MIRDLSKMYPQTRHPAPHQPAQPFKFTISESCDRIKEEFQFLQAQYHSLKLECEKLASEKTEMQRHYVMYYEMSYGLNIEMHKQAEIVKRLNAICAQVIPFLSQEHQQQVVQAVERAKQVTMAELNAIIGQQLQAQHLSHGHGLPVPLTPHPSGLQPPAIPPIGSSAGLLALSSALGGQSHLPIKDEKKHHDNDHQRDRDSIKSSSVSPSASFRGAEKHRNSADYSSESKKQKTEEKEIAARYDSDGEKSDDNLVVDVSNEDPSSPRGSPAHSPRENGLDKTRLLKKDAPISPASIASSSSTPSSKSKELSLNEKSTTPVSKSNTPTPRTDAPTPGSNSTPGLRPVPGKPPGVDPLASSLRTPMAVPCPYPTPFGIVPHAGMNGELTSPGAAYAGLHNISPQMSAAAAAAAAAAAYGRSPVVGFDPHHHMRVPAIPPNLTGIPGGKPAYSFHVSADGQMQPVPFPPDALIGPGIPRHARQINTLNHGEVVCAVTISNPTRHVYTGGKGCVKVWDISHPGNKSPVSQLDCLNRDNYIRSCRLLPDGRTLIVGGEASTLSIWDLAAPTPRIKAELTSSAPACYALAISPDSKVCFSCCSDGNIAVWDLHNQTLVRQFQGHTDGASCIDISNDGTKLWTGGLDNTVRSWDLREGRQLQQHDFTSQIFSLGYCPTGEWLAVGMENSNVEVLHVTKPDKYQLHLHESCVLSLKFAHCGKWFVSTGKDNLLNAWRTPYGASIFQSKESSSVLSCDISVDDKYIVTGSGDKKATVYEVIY
UniProt Q9NR96: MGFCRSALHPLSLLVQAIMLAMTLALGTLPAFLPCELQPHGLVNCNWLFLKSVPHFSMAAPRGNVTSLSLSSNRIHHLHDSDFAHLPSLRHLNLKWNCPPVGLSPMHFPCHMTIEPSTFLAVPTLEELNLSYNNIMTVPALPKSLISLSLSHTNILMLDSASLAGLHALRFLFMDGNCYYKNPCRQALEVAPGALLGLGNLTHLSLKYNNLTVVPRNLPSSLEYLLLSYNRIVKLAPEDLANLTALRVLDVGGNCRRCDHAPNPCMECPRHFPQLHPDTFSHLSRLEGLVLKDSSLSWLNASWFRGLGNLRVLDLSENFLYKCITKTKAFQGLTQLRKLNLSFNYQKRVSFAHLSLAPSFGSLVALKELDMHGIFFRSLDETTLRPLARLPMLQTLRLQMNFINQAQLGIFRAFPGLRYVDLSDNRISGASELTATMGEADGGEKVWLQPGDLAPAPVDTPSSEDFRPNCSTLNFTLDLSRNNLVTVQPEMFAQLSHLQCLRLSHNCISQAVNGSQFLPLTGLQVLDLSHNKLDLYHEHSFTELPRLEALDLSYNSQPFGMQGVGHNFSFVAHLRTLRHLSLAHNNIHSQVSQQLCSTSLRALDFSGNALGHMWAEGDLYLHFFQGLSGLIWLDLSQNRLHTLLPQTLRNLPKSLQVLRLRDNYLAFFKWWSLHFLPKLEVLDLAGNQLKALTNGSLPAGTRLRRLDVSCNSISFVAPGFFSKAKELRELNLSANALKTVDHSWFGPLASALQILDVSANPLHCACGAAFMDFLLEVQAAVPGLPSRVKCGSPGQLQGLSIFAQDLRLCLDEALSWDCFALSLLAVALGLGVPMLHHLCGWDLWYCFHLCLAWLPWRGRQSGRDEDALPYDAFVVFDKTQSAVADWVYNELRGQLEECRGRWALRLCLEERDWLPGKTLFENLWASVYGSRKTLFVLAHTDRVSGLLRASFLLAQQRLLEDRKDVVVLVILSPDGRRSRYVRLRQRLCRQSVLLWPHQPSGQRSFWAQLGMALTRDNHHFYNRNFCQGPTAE
UniProt Q53S58: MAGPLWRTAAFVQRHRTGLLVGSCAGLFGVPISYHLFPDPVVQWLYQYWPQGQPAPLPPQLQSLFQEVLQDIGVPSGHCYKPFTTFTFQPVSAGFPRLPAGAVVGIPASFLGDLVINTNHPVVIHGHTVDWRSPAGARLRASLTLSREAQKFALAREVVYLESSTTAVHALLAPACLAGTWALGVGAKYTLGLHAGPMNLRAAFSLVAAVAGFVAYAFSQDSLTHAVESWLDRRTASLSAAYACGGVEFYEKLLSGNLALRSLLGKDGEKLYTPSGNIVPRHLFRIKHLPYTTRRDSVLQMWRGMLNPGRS
UniProt Q5BJD5: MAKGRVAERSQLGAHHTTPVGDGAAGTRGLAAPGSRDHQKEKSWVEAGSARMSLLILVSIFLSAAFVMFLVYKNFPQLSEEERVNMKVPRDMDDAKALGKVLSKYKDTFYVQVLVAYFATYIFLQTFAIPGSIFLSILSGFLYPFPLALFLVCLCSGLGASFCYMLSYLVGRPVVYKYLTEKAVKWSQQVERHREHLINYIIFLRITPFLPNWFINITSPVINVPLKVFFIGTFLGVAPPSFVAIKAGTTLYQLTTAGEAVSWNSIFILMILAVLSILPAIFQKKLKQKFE
UniProt Q9H061: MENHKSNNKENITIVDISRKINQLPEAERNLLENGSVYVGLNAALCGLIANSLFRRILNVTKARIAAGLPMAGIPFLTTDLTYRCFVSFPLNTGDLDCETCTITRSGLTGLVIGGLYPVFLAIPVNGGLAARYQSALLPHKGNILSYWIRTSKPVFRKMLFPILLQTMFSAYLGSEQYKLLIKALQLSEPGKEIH
UniProt Q12893: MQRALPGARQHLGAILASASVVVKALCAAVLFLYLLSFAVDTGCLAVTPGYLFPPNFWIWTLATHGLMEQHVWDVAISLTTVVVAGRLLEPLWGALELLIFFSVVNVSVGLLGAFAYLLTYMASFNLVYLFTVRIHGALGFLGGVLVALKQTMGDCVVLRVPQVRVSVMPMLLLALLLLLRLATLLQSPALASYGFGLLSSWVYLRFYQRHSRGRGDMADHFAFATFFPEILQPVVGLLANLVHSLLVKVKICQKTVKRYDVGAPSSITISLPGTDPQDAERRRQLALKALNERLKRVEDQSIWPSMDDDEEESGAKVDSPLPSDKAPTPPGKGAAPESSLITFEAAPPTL

[2] = compound: CC1=C(SC2=C1C(=N[C@H](C3=NN=C(N32)C)CC(=O)N)C4=CC=C(C=C4)Cl)C
Method in brief: as §1

[3] = compound: CC1=C2C(=CC=C1)N=C(N(C2=O)C3=CC=CC=C3C)CN4C=NC5=C(N=CN=C54)N
Method in brief: as §1

[4] = compound: Cc1sc2c(c1C)C(c1ccc(Cl)cc1)=N[C@@H](CC(=O)OC(C)(C)C)c1nnc(C)n1-2
Method in brief: as §1

[5] = compound: c1ccc([C@@H]2C[C@H]2NC2CCNCC2)cc1
Method in brief: as §1

Measured: log2 fold change

TNFRSF10A (UniProt O00220)
inactive: [1] 0.033 | [2] 0.006 | [3] -0.058 | [4] 0.024 | [5] 0.01

TLK1 (UniProt Q9UKI8)
inactive: [1] 0.007 | [2] 0.036 | [3] 0.036 | [4] -0.036 | [5] 0.018

TMEM68 (UniProt Q96MH6)
inactive: [1] 0.031 | [2] 0.055 | [3] 0.123 | [4] 0.003 | [5] -0.056

TMEM106B (UniProt Q9NUM4)
inactive: [1] 0.039 | [2] -0.022 | [3] -0.008 | [4] -0.097 | [5] 0.034

TMEM173 (UniProt Q86WV6)
inactive: [1] -0.035 | [2] 0.045 | [3] 0.086 | [4] -0.099 | [5] -0.005

TMEM97 (UniProt Q5BJF2)
inactive: [1] 0.06 | [2] 0.052 | [3] -0.018 | [4] 0.031 | [5] 0.028

TMEM259 (UniProt Q4ZIN3)
inactive: [1] 0.017 | [2] -0.005 | [3] 0.052 | [4] 0.015 | [5] 0.002

TMEM11 (UniProt P17152)
inactive: [1] 0.015 | [2] -0.011 | [3] 0.066 | [4] 0.007 | [5] -0.011

TMEM9 (UniProt Q9P0T7)
inactive: [1] 0.008 | [2] 0.02 | [3] -0.002 | [4] -0.027 | [5] -0.079

TMED2 (UniProt Q15363)
inactive: [1] 0.04 | [2] 0.027 | [3] -0.005 | [4] -0.024 | [5] 0.022

TMED1 (UniProt Q13445)
inactive: [1] -0.037 | [2] 0.05 | [3] 0.011 | [4] 0.066 | [5] -0.025

TMOD1 (UniProt P28289)
inactive: [1] -0.041 | [2] -0.036 | [3] 0.051 | [4] 0.036 | [5] 0.04

TMEM120A (UniProt Q9BXJ8)
inactive: [1] -0.126 | [2] 0.056 | [3] 0.012 | [4] -0.11 | [5] -0.049

TMPO isoform 2 (UniProt P42167)
inactive: [1] -0.096 | [2] -0.104 | [3] 0.116 | [4] 0.041 | [5] 0.013

TMEM65 (UniProt Q6PI78)
inactive: [1] -0.022 | [2] 0.133 | [3] 0.077 | [4] -0.144 | [5] -0.023

TMUB2 (UniProt Q71RG4)
inactive: [1] 0.042 | [2] -0.016 | [3] 0.027 | [4] 0.09 | [5] 0.028

TMEM87B (UniProt Q96K49)
inactive: [1] 0.04 | [2] 0.083 | [3] -0.031 | [4] -0.036 | [5] 0.012

TNFAIP8 isoform 4 (UniProt O95379)
inactive: [1] -0.021 | [2] 0.026 | [3] 0.02 | [4] -0.042 | [5] -0.011

TMEM205 (UniProt Q6UW68)
inactive: [1] -0.019 | [2] 0.197 | [3] -0.154 | [4] 0.072 | [5] -0.039

TMTC3 (UniProt Q6ZXV5)
inactive: [1] -0.012 | [2] 0.019 | [3] 0.011 | [4] -0.034 | [5] 0.005

TLN1 (UniProt Q9Y490)
inactive: [1] -0.052 | [2] 0.052 | [3] 0.051 | [4] -0.015 | [5] -0.018

TMBIM6 isoform 2 (UniProt P55061)
inactive: [1] -0.037 | [2] -0.022 | [3] 0.041 | [4] -0.03 | [5] 0.041

TMLHE isoform 8 (UniProt Q9NVH6)
inactive: [1] -0.071 | [2] -0.002 | [3] 0.052 | [4] -0.02 | [5] 0.067

TMEM214 (UniProt Q6NUQ4)
inactive: [1] 0.023 | [2] 0.044 | [3] 0.005 | [4] -0.002 | [5] -0.024

TMED8 (UniProt Q6PL24)
inactive: [1] -0.005 | [2] -0.02 | [3] 0.081 | [4] -0.017 | [5] -0.008

TMEM186 (UniProt Q96B77)
inactive: [1] 0.045 | [2] -0.02 | [3] 0.105 | [4] -0.024 | [5] 0.056

TMX4 (UniProt Q9H1E5)
inactive: [1] 0.038 | [2] -0.034 | [3] -0.005 | [4] 0.057 | [5] 0

TMEM167A (UniProt Q8TBQ9)
inactive: [1] -0.031 | [2] -0.023 | [3] -0.018 | [4] -0.025 | [5] 0.084

TMEM109 (UniProt Q9BVC6)
inactive: [1] 0.048 | [2] 0.019 | [3] 0.053 | [4] -0.096 | [5] -0.024

TMPPE (UniProt Q6ZT21)
inactive: [1] 0.074 | [2] 0.036 | [3] -0.001 | [4] -0.007 | [5] -0.038

TMEM245 (UniProt Q9H330)
inactive: [1] 0.017 | [2] -0.038 | [3] -0.011 | [4] -0.011 | [5] 0.061

TMEM8A (UniProt Q9HCN3)
inactive: [1] 0.017 | [2] 0.038 | [3] -0.011 | [4] 0.038 | [5] 0.094

TMEM242 (UniProt Q9NWH2)
inactive: [1] 0.088 | [2] 0.06 | [3] 0.02 | [4] -0.058 | [5] 0.13

TLK2 isoform 2 (UniProt Q86UE8)
inactive: [1] 0.006 | [2] 0.021 | [3] 0.041 | [4] -0.007 | [5] 0.051

TMEM161A (UniProt Q9NX61)
inactive: [1] -0.055 | [2] 0.017 | [3] 0.098 | [4] -0.133 | [5] 0.003

TM9SF1 (UniProt O15321)
inactive: [1] 0.169 | [2] 0.045 | [3] 0.103 | [4] -0.081 | [5] -0.05

TMEM33 (UniProt P57088)
inactive: [1] 0.002 | [2] 0.057 | [3] 0.029 | [4] -0.05 | [5] 0.034

TM9SF2 (UniProt Q99805)
inactive: [1] 0.018 | [2] 0.035 | [3] 0.054 | [4] -0.044 | [5] -0.028

TLE4 isoform 3 (UniProt Q04727)
inactive: [1] -0.011 | [2] 0.047 | [3] 0.052 | [4] -0.051 | [5] 0.003

TMCO1 (UniProt Q9UM00)
inactive: [1] -0.112 | [2] 0.082 | [3] 0.017 | [4] 0.036 | [5] -0.018

TMEM223 (UniProt A0PJW6)
inactive: [1] 0.069 | [2] -0.045 | [3] 0.118 | [4] 0.03 | [5] -0.024

TLR9 isoform 4 (UniProt Q9NR96)
inactive: [1] -0.104 | [2] 0.052 | [3] 0.02 | [4] 0.114 | [5] -0.143

TMEM168 (UniProt Q9H0V1)
inactive: [1] 0.014 | [2] 0.066 | [3] -0.002 | [4] -0.128 | [5] 0.06

TMSB10 (UniProt P63313)
inactive: [1] 0.036 | [2] 0.002 | [3] 0.068 | [4] -0.035 | [5] -0.047

TMEM128 (UniProt Q5BJH2)
inactive: [1] -0.038 | [2] -0.001 | [3] 0.185 | [4] -0.1 | [5] 0

TMEM177 (UniProt Q53S58)
inactive: [1] 0.036 | [2] -0.01 | [3] -0.164 | [4] -0.001 | [5] -0.002

TMEM208 (UniProt Q9BTX3)
inactive: [1] -0.101 | [2] 0.02 | [3] 0.088 | [4] -0.14 | [5] 0.031

TMEM41B (UniProt Q5BJD5)
inactive: [1] -0.005 | [2] 0.022 | [3] 0.034 | [4] -0.16 | [5] 0.046

TMEM126A (UniProt Q9H061)
inactive: [1] 0.056 | [2] 0.032 | [3] 0.06 | [4] -0.015 | [5] -0.03

TMEM192 (UniProt Q8IY95)
inactive: [1] 0.02 | [2] -0.03 | [3] 0.018 | [4] -0.024 | [5] 0.032

Quoted from above (two entries):
TMEM161A (UniProt Q9NX61)
inactive: [1] -0.055 | [2] 0.017 | [3] 0.098 | [4] -0.133 | [5] 0.003

TM9SF1 (UniProt O15321)
inactive: [1] 0.169 | [2] 0.045 | [3] 0.103 | [4] -0.081 | [5] -0.05

(continued)

TMF1 (UniProt P82094)
inactive: [1] 0.036 | [2] 0.028 | [3] -0.001 | [4] 0.02 | [5] 0.034

TMEM115 (UniProt Q12893)
inactive: [1] 0.014 | [2] 0.026 | [3] -0.038 | [4] 0.022 | [5] 0.009
